{"source": "PubChem BioAssay AID686938 – Drosophila RNAi Screening Center, 2013", "purpose": "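Knock-downs reducing store-operated calcium influx in Drosophila cells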 (primary screen)", "cells": "Drosophila S2R+ cells", "reagent": "long dsRNA against Drosophila genes, about 0.25 µg dsRNA per well, roughly 10,000 cells", "timing": "5 days of knock-down before the calcium assay", "conditions": "thapsigargin (SERCA pump blocker) to empty calcium stores; entry signal taken 4 min after adding it", "read-out": "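Per-well fluo-4 fluorescence in two replicates, unnormalised, measured in resting cells and 4 min after store depletion by the SERCA blocker thapsigargin; ratio of the two present in few wells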", "scale": "calcium entry signal: higher = stronger calcium signal after store depletion; entry to resting ratio: higher = more calcium entry relative to resting level; resting calcium signal: higher = higher resting calcium signal", "call rule": "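Hit if the duplicate-averaged plate z-score for entry over resting signal is under −3; wells with weak total dye signal (Fmax z < −2) or more than 5 off-targets removed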", "meaning of the calls": "active = strongly reduced calcium entry; inactive = no strong reduction", "note": "In all, the deposit lists about 23,000 reagents; below is a random part of those that have a named target and a result. Over the whole deposit, 75 (0.33%) got an active call. 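Raw plate signals without normalisation; calls rest on plate z-scores that were not deposited; ratio present for only 364 wells.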 Entries without a mark were called inactive. A plus sign joins genes that one reagent is predicted to hit. No sequences are given here. Not stated in the record: the dose of the treatment."}
{"gene": "CG9626", "DRSC id": "DRSC16525", "calcium entry signal, replicate 1 (fluorescence units)": 2.67e7, "calcium entry signal, replicate 2 (fluorescence units)": 2.94e7, "resting calcium signal, replicate 1 (fluorescence units)": 1.22e7, "resting calcium signal, replicate 2 (fluorescence units)": 1.31e7}
{"gene": "CG5958", "DRSC id": "DRSC02915", "calcium entry signal, replicate 1 (fluorescence units)": 3.97e7, "calcium entry signal, replicate 2 (fluorescence units)": 4.12e7, "resting calcium signal, replicate 1 (fluorescence units)": 1.88e7, "resting calcium signal, replicate 2 (fluorescence units)": 1.97e7}
{"gene": "CG5177", "DRSC id": "DRSC02824", "calcium entry signal, replicate 1 (fluorescence units)": 4.91e7, "resting calcium signal, replicate 1 (fluorescence units)": 1.93e7}
{"gene": "sim", "DRSC id": "DRSC17054", "calcium entry signal, replicate 1 (fluorescence units)": 2.44e7, "calcium entry signal, replicate 2 (fluorescence units)": 3.61e7, "resting calcium signal, replicate 1 (fluorescence units)": 1.23e7, "resting calcium signal, replicate 2 (fluorescence units)": 4.82e7}
{"gene": "CG9330", "DRSC id": "DRSC11066", "calcium entry signal, replicate 1 (fluorescence units)": 2.95e7, "calcium entry signal, replicate 2 (fluorescence units)": 4.63e7, "resting calcium signal, replicate 1 (fluorescence units)": 1.46e7, "resting calcium signal, replicate 2 (fluorescence units)": 2.00e7}
{"gene": "BOD1", "DRSC id": "DRSC15824", "calcium entry signal, replicate 1 (fluorescence units)": 3.97e7, "calcium entry signal, replicate 2 (fluorescence units)": 4.66e7, "resting calcium signal, replicate 1 (fluorescence units)": 2.00e7, "resting calcium signal, replicate 2 (fluorescence units)": 2.31e7}
{"gene": "nord", "DRSC id": "DRSC04210", "calcium entry signal, replicate 1 (fluorescence units)": 3.49e7, "calcium entry signal, replicate 2 (fluorescence units)": 4.06e7, "resting calcium signal, replicate 1 (fluorescence units)": 1.83e7, "resting calcium signal, replicate 2 (fluorescence units)": 1.83e7}
{"gene": "nord", "DRSC id": "DRSC04361", "calcium entry signal, replicate 1 (fluorescence units)": 3.73e7, "calcium entry signal, replicate 2 (fluorescence units)": 4.19e7, "resting calcium signal, replicate 1 (fluorescence units)": 1.94e7, "resting calcium signal, replicate 2 (fluorescence units)": 2.08e7}
{"gene": "MICU3", "DRSC id": "DRSC13381", "calcium entry signal, replicate 1 (fluorescence units)": 5.71e7, "calcium entry signal, replicate 2 (fluorescence units)": 3.20e7, "resting calcium signal, replicate 1 (fluorescence units)": 2.55e7, "resting calcium signal, replicate 2 (fluorescence units)": 1.58e7}
{"gene": "MICU3", "DRSC id": "DRSC15613", "calcium entry signal, replicate 1 (fluorescence units)": 3.48e7, "calcium entry signal, replicate 2 (fluorescence units)": 3.15e7, "resting calcium signal, replicate 1 (fluorescence units)": 1.48e7, "resting calcium signal, replicate 2 (fluorescence units)": 1.29e7}
{"gene": "btv", "DRSC id": "DRSC01615", "calcium entry signal, replicate 1 (fluorescence units)": 2.91e7, "calcium entry signal, replicate 2 (fluorescence units)": 4.51e7, "resting calcium signal, replicate 1 (fluorescence units)": 1.66e7, "resting calcium signal, replicate 2 (fluorescence units)": 1.92e7}
{"gene": "btv", "DRSC id": "DRSC02449", "calcium entry signal, replicate 1 (fluorescence units)": 4.57e7, "calcium entry signal, replicate 2 (fluorescence units)": 3.36e7, "resting calcium signal, replicate 1 (fluorescence units)": 1.95e7, "resting calcium signal, replicate 2 (fluorescence units)": 1.56e7}
{"gene": "CG7252", "DRSC id": "DRSC10789", "calcium entry signal, replicate 1 (fluorescence units)": 5.80e7, "calcium entry signal, replicate 2 (fluorescence units)": 4.77e7, "resting calcium signal, replicate 1 (fluorescence units)": 3.66e7, "resting calcium signal, replicate 2 (fluorescence units)": 1.84e7}
{"gene": "CG7252", "DRSC id": "DRSC21492", "calcium entry signal, replicate 1 (fluorescence units)": 3.78e7, "calcium entry signal, replicate 2 (fluorescence units)": 3.53e7, "resting calcium signal, replicate 1 (fluorescence units)": 2.11e7, "resting calcium signal, replicate 2 (fluorescence units)": 1.49e7}
{"gene": "S-Lap5", "DRSC id": "DRSC06732", "calcium entry signal, replicate 1 (fluorescence units)": 3.37e7, "calcium entry signal, replicate 2 (fluorescence units)": 4.51e7, "resting calcium signal, replicate 1 (fluorescence units)": 1.80e7, "resting calcium signal, replicate 2 (fluorescence units)": 2.07e7}
{"gene": "Rnf146", "DRSC id": "DRSC11045", "calcium entry signal, replicate 1 (fluorescence units)": 2.83e7, "calcium entry signal, replicate 2 (fluorescence units)": 4.78e7, "resting calcium signal, replicate 1 (fluorescence units)": 1.33e7, "resting calcium signal, replicate 2 (fluorescence units)": 1.96e7}
{"gene": "Gem4b + Gem4c + Glos", "DRSC id": "DRSC18244", "calcium entry signal, replicate 1 (fluorescence units)": 2.17e7, "calcium entry signal, replicate 2 (fluorescence units)": 4.34e7, "resting calcium signal, replicate 1 (fluorescence units)": 1.24e7, "resting calcium signal, replicate 2 (fluorescence units)": 1.99e7}
{"gene": "CG42271", "DRSC id": "DRSC19809", "calcium entry signal, replicate 1 (fluorescence units)": 2.83e7, "calcium entry signal, replicate 2 (fluorescence units)": 3.58e7, "resting calcium signal, replicate 1 (fluorescence units)": 1.43e7, "resting calcium signal, replicate 2 (fluorescence units)": 1.73e7}
{"gene": "CG42271", "DRSC id": "DRSC22894", "calcium entry signal, replicate 1 (fluorescence units)": 5.26e7, "calcium entry signal, replicate 2 (fluorescence units)": 3.19e7, "resting calcium signal, replicate 1 (fluorescence units)": 2.74e7, "resting calcium signal, replicate 2 (fluorescence units)": 1.52e7}
{"gene": "dati", "DRSC id": "DRSC17128", "calcium entry signal, replicate 1 (fluorescence units)": 2.80e7, "calcium entry signal, replicate 2 (fluorescence units)": 3.46e7, "resting calcium signal, replicate 1 (fluorescence units)": 1.31e7, "resting calcium signal, replicate 2 (fluorescence units)": 1.68e7}
{"gene": "dati", "DRSC id": "DRSC17140", "calcium entry signal, replicate 1 (fluorescence units)": 4.15e7, "calcium entry signal, replicate 2 (fluorescence units)": 6.03e7, "entry to resting ratio": 1.9, "resting calcium signal, replicate 1 (fluorescence units)": 2.18e7, "resting calcium signal, replicate 2 (fluorescence units)": 2.32e7}
{"gene": "dati", "DRSC id": "DRSC17153", "calcium entry signal, replicate 1 (fluorescence units)": 4.40e7, "calcium entry signal, replicate 2 (fluorescence units)": 5.78e7, "entry to resting ratio": 1.9, "resting calcium signal, replicate 1 (fluorescence units)": 2.26e7, "resting calcium signal, replicate 2 (fluorescence units)": 2.10e7}

Part of the list above, reformatted.
gene | DRSC id | calcium entry signal, replicate 1 (fluorescence units) | calcium entry signal, replicate 2 (fluorescence units) | entry to resting ratio | resting calcium signal, replicate 1 (fluorescence units) | resting calcium signal, replicate 2 (fluorescence units)
BOD1 | DRSC15824 | 3.97e7 | 4.66e7 | – | 2.00e7 | 2.31e7
nord | DRSC04210 | 3.49e7 | 4.06e7 | – | 1.83e7 | 1.83e7
nord | DRSC04361 | 3.73e7 | 4.19e7 | – | 1.94e7 | 2.08e7
